The text below walks through data of publication PMC10897598, “TwinF interface inhibitor FP802 stops loss of motor neurons and mitigates disease progression in a mouse model of ALS” (Cell Reports Medicine, 2024).

Protein sequences, listed by entry. Tags and fused reporters are not part of them. Residues count along the entry.
UniProt Q7TN37: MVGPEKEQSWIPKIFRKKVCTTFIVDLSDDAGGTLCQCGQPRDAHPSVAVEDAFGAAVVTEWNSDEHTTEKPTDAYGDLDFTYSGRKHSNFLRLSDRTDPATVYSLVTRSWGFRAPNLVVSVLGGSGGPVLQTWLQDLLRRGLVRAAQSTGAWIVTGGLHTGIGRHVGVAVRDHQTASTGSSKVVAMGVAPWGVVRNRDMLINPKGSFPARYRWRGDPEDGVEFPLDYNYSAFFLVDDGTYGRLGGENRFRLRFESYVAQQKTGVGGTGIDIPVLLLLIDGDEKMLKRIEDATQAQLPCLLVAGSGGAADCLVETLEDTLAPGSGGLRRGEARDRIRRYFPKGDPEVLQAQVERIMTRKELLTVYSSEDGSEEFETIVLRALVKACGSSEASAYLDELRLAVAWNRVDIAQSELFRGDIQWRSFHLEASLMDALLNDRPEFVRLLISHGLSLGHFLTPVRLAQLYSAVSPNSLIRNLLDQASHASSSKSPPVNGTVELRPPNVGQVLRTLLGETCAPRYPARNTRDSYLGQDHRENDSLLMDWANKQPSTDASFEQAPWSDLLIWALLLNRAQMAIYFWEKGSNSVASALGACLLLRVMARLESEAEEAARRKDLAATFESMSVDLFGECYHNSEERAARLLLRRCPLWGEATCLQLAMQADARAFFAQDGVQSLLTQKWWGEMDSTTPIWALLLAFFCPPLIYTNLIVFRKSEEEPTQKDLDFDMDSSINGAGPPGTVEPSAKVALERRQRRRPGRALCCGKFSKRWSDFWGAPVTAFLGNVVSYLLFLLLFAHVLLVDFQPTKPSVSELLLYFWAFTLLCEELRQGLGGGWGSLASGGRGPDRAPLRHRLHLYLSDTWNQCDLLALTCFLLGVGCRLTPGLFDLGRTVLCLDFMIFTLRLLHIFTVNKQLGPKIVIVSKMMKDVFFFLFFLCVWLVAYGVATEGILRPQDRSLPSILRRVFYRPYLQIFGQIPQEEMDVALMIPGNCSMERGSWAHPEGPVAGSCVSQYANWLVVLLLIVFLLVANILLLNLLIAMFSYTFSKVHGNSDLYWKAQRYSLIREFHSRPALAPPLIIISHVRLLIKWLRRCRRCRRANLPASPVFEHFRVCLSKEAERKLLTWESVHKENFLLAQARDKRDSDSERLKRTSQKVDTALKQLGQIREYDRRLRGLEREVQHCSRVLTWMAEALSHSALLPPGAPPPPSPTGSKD
UniProt Q01097, residues 27-1482: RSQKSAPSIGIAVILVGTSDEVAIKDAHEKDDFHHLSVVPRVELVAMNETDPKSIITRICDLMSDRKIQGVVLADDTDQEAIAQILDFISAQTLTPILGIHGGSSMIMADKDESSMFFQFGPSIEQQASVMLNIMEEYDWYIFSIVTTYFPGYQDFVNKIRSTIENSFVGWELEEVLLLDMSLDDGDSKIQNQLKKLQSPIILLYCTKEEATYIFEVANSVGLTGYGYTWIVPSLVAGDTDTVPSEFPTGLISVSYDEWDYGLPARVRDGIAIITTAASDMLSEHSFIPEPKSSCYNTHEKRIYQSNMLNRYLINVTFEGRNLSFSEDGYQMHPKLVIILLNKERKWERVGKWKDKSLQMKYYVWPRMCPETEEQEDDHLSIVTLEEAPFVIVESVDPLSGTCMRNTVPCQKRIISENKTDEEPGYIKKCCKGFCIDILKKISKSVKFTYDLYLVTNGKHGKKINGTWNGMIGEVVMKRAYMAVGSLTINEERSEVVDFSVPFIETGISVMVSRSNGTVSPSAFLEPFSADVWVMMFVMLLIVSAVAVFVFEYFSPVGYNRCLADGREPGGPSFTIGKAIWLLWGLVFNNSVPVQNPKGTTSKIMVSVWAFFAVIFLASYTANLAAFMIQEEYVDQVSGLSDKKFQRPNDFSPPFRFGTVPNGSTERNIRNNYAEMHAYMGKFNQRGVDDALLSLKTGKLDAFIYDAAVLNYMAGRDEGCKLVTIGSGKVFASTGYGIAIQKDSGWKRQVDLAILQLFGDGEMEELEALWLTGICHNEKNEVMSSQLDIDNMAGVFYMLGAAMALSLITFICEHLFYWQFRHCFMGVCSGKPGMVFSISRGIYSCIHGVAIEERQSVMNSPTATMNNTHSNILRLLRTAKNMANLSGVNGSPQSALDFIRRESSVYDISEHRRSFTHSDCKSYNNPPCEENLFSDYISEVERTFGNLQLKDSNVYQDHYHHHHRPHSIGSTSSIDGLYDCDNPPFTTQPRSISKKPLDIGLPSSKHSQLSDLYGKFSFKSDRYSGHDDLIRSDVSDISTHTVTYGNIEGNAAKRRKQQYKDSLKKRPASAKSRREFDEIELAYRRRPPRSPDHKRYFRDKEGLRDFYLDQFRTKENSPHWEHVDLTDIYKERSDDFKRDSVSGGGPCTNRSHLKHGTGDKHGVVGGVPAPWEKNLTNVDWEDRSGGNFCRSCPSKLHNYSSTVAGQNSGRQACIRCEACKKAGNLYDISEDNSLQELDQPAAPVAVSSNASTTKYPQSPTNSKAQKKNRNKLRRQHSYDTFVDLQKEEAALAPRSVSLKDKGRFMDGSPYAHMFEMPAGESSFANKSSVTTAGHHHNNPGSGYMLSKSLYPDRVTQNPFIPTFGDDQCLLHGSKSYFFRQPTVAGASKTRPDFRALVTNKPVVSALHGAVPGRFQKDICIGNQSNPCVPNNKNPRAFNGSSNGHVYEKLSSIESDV

The target in the assay is transient receptor potential cation channel subfamily M member 4 (TRPM4) (mouse (endogenous in lumbar spinal cord)) (UniProt Q7TN37). The experiment in a line: co-IP; anti-TRPM4 antibody and protein A/G magnetic beads; lumbar spinal cord lysates of vehicle-treated mice (ALZET osmotic pump, two weeks); 4°C; 10 mM Tris pH 8.0, 150 mM NaCl, 1 mM EDTA, 1% Triton X-100, 10% glycerol; GluN2B immunoblot.

Results are given in words; binding and its absence hold for the method and conditions named. Binding seen in cells or lysates may run through a third protein. Some binding calls cover weakened binding; strength is not graded here.

In the case of “NMDAR subunit GluN2B (from UniProt Q01097 27-1482)”, the binding entry is given as “binds”.
